# From patent publication US6949558B2, “Enhancement of taxane-based chemotherapy by a CDK1 antagonist” (Yale University, priority 2001, dated 2005)
# Some results were stated once for a whole list of compounds, not compound by compound. For part of these data: For at least one compound, name, drawing or mass did not settle the structure.
# Columns and labels:
# MCF-7 tumors = assay: Breast cancer xenograft model (Example 8); format: in vivo, CB17 SCID/beige mice; details: for tumor burden: on d. 20, taxol alone 5 mg/kg or Purvalanol A alone 20 mg/kg; for loss of all animals by: taxol alone 2.5 or 5 mg/kg, Purvalanol A alone 20 mg/kg, sacrifice at tumor burden >3000 mm^3
# Experimental: Breast Cancer Xenograft Model: All experiments involving animals were approved by the institutional animal cure and use committee. Six- to eight-week old female CB17 SCID/beige mice (Taconic Farms, Germantown, N.Y.) were injected s.c. into the flanks with 2.5×10^6 exponentially growing MCF-7 cells in 250 μl of sterile PBS, pH 7.4. […] Animals were injected i.p. with taxol alone (2.5 or 5 mg/kg), Purvalanol A alone (20 mg/kg) or the sequential combination of taxol-Purvalanol A for two consecutive days each divided by a day with no treatment. For single agent treatment, vehicle was given in place of taxol or Purvalanol A with the same schedule. Each complete cycle was separated by 2 d without treatment. Tumor volume was measured in the three dimensions with a caliper. Animals with tumor burden >3000 mm^3 were sacrificed (Survival).
# Statistical Analysis: All in vitro experiments were repeated at least three times. […] The survival curves were compared using the log-rank test. This test generates a P value testing the null hypothesis that the survival curves are identical in the overall populations.
# [1] = tested on: survivin expression in MCF-7 cells; assay: Survivin expression by Western blotting in MCF-7 cells; format: cell-based, human; details: adriamycin (100 μM), taxol (2 μM)
# Experimental: Cell Cultures, Proteins and Antibodies: Breast carcinoma MCF-7 and cervical carcinoma HeLa cells (American Type Culture Collection, Manassas, Va.) were maintained in culture according to the manufacturer's specifications. For treatment with genotoxic agents, HeLa or MCF-7 cells were incubated with vehicle (DMSO) or taxol (2 μM, Sigma Chemical Co., St. Louis, Mo.), adriamycin (100 nM, Sigma), cis-platin (3 μM, Sigma) or subjected to ultraviolet B (UVB) irradiation at 50 or 300 J/m^2. […] A replication-deficient adenovirus encoding wild type survivin (pAd-Survivin) or control encoding Green Fluorescence Protein (pAd-GFP) was generated using the pAd-Easy system as described previously (M. Mesri et al. (2001) J. Clin. Invest. 108: 981-90), and propagated in HEK293 cells with purification by CsCl banding. […]
# In some experiments, total RNA was extracted from MCF-7 cells at various time intervals after adriamycin treatment, and hybridized with 32 P-labeled survivin cDNA as described previously. Radioactive bands were detected by autoradiography. […] In other experiments, samples were transferred to nylon membranes and analyzed by Western blotting with antibodies to p34^cdc2 (1 μg/ml), survivin (2 μg/ml), or survivinT34* (5 μg/ml).
Structure (SMILES),tumor burden (MCF-7 tumors) [mm^3],loss of all animals by (MCF-7 tumors) [days],increased survivin expression [1] [fold]
CC(C)[C@H](CO)Nc1nc(Nc2cccc(Cl)c2)c2ncn(C(C)C)c2n1 [Purvalanol A],> 3000,21 to 23,–
"CC(=O)O[C@H]1C(=O)[C@@]2(C)[C@H]([C@H](OC(=O)c3ccccc3)[C@]3(O)C[C@H](OC(=O)[C@H](O)[C@@H](NC(=O)c4ccccc4)c4ccccc4)C(C)=C1C3(C)C)[C@]1(OC(C)=O)CO[C@@H]1C[C@@H]2O [taxol, Paclitaxel]",> 3000,21 to 23,4 to 5
"COc1cccc2c1C(=O)c1c(O)c3c(c(O)c1C2=O)C[C@@](O)(C(=O)CO)C[C@@H]3O[C@H]1C[C@H](N)[C@H](O)[C@H](C)O1 [adriamycin, doxorubicin]",–,–,4 to 5
